Consider six molecules from PMC7968368.

The chains behind the UniProt entries cited, without tags or fusion partners.
UniProt P23198: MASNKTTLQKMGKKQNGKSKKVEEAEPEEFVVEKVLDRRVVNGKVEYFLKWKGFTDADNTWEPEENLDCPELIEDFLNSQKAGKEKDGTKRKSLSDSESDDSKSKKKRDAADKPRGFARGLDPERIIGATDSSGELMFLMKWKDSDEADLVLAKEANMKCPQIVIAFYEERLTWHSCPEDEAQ
UniProt Q6PDQ2: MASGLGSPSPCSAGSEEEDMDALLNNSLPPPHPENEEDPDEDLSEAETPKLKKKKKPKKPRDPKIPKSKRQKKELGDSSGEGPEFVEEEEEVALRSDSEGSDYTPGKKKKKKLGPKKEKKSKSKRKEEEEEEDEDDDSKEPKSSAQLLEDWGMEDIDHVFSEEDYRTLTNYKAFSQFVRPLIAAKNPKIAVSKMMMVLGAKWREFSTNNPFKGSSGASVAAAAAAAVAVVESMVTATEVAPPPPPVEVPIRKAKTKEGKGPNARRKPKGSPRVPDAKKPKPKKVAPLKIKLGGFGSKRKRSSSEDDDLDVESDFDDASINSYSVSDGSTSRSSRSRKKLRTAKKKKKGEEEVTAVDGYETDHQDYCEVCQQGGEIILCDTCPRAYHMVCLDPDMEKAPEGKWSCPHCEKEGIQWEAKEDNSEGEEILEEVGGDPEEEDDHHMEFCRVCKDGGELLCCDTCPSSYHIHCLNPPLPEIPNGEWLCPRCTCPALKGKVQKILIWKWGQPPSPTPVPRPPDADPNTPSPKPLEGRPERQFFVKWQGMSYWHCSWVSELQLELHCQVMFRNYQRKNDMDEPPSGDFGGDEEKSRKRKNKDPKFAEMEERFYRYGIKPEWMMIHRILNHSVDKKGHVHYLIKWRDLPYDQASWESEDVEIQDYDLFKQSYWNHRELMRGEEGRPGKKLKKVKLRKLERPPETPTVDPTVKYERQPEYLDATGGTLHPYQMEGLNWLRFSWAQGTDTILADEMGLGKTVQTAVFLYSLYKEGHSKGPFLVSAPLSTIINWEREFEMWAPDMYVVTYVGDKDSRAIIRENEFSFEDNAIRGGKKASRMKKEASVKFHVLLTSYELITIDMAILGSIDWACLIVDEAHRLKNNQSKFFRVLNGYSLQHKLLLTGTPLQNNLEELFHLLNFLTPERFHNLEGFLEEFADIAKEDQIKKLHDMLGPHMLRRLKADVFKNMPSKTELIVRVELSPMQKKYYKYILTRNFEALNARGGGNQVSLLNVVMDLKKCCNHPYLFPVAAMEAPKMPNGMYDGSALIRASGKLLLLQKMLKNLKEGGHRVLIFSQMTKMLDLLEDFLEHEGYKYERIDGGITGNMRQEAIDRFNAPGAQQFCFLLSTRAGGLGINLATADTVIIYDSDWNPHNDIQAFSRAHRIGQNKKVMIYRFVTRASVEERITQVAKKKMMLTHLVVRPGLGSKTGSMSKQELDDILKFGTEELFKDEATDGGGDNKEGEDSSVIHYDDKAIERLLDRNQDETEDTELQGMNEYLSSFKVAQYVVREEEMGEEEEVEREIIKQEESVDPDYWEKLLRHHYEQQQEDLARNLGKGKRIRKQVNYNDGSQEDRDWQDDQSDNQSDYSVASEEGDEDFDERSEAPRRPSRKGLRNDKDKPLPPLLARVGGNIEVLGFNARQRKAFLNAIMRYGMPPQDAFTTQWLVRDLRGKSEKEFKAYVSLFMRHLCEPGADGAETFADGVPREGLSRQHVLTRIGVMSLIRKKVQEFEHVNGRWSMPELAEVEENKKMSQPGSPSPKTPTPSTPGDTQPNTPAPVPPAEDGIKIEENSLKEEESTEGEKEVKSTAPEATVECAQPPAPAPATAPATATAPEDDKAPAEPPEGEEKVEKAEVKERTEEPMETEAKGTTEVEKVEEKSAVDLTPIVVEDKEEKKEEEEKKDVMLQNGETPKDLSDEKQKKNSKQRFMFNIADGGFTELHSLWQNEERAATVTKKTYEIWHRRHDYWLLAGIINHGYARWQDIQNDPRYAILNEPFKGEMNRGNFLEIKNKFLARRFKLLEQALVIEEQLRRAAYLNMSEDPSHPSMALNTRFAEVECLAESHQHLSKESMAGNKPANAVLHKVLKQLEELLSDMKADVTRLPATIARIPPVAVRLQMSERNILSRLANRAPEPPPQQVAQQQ
UniProt O09106: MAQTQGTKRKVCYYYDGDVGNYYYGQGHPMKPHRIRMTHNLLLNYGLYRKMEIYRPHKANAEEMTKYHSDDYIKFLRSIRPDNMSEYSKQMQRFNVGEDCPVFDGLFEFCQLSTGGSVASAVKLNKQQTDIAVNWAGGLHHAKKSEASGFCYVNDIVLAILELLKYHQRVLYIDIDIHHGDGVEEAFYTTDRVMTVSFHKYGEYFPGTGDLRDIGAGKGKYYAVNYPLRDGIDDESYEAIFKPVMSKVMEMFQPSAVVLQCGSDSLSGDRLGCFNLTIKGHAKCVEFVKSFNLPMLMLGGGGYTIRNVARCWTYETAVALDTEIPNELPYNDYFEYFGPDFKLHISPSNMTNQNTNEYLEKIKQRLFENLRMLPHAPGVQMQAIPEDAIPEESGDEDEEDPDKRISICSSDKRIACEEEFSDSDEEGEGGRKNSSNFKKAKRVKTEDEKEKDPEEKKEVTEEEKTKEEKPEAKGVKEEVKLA
UniProt P70288: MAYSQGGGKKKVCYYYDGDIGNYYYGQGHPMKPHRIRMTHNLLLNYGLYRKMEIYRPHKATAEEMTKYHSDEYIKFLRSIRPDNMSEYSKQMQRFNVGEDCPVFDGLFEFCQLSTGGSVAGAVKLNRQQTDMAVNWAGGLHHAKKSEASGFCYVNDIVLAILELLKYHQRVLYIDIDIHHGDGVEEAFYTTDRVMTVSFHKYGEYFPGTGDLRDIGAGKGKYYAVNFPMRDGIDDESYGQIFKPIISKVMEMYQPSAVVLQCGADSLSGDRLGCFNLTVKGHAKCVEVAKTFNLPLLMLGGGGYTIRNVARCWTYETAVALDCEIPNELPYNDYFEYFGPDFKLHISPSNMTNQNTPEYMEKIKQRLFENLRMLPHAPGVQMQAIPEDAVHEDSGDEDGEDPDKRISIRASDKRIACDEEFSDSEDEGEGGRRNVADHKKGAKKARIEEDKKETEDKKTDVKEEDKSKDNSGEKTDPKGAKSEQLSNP

Assay [1] addresses T1, TBX2 (T-box 2) (mouse (endogenous in E14.5 lung)) (UniProt Q60707).
T1 sequence: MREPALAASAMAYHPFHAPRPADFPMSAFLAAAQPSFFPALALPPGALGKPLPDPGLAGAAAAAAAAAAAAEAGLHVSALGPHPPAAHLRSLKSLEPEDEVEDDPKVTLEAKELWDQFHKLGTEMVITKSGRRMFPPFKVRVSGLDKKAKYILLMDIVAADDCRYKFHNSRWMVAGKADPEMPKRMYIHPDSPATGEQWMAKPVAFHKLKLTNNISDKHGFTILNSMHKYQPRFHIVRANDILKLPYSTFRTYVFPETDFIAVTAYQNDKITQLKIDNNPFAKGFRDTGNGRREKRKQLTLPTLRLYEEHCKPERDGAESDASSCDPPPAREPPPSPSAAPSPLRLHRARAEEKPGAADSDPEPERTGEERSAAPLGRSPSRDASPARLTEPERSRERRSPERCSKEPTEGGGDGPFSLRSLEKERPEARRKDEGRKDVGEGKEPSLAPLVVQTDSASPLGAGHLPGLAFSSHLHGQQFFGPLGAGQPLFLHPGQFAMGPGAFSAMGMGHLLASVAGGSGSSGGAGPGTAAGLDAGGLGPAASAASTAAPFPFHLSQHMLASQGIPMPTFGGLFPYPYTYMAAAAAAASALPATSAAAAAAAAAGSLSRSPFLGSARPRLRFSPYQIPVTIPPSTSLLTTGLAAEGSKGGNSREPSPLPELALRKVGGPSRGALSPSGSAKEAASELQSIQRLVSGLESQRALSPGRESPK
As to the kind of experiment: proximity ligation; Duolink in situ PLA on 10 µm frontal lung sections of E14.5 wildtype and Tbx2-mutant embryos; primary antibodies against TBX2 and the candidate, 1:100, overnight at 4 °C.

Assay [2] addresses full-length mouse CBX3 (Cbx3-Myc-DDK) (mouse) (UniProt P23198). Kind of assay: co-IP; HEK293 co-transfected with HA-TBX2 and the candidate; lysates by the RIME protocol; IP with anti-MYC or an antibody against the candidate, Protein G magnetic beads overnight at 4 °C; blot for HA-tagged TBX2.
The target in assay [3] is full-length mouse CHD4 (mouse) (UniProt Q6PDQ2). Described as above.
Assay [4] deals with full-length mouse HDAC1 (mouse) (UniProt O09106). The description is as above.
Assay [5] addresses full-length mouse HDAC2 (Hdac2-Myc-DDK) (mouse) (UniProt P70288). Described as above.
Assay [6] addresses T2, full-length mouse HMGB2 (Hmgb2-GFP) (mouse) (UniProt P30681).
T2 sequence: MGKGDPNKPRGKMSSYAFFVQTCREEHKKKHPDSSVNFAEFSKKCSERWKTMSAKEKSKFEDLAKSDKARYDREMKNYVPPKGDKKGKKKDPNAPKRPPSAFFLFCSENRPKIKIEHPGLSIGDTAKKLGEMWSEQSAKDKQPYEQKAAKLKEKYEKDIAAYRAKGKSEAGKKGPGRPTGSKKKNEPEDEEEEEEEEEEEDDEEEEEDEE
The assay is described as above.

These are yes or no findings as the source states them, for the method shown. Binding seen in cells or lysates may run through a third protein. Some results given as binding are weak or reduced against the parent protein; the word gives no strength. For some of these results: Tags and fused reporters may be left off the sequences shown.

Consider “HDAC2 (histone deacetylase 2) (from UniProt P70288 1-488) (enzyme)”, for which the binding result in assay [1] is given as “binds”.
The same measure, in the same setting: in the case of “CHD4 (chromodomain helicase DNA binding protein 4) (from UniProt Q6PDQ2 1-1915) (enzyme)” it was “binds”; in that of “HDAC1 (histone deacetylase 1) (from UniProt O09106 1-482) (enzyme)”, “binds”.
The same measure, in the same setting: the same measure for “CBX3 (chromobox 3) (from UniProt P23198 1-183)”: “binds”.

B1: HMGB2 (high mobility group box 2) (protein, UniProt P30681 1-210)
chain: MGKGDPNKPRGKMSSYAFFVQTCREEHKKKHPDSSVNFAEFSKKCSERWKTMSAKEKSKFEDLAKSDKARYDREMKNYVPPKGDKKGKKKDPNAPKRPPSAFFLFCSENRPKIKIEHPGLSIGDTAKKLGEMWSEQSAKDKQPYEQKAAKLKEKYEKDIAAYRAKGKSEAGKKGPGRPTGSKKKNEPEDEEEEEEEEEEEDDEEEEEDEE
On to B1, for which the binding entry in assay [1] is given as “binds”.

B2: N-terminally HA-tagged full-length human TBX2 (protein, UniProt Q13207 1-712)
chain: MREPALAASAMAYHPFHAPRPADFPMSAFLAAAQPSFFPALALPPGALAKPLPDPGLAGAAAAAAAAAAAAEAGLHVSALGPHPPAAHLRSLKSLEPEDEVEDDPKVTLEAKELWDQFHKLGTEMVITKSGRRMFPPFKVRVSGLDKKAKYILLMDIVAADDCRYKFHNSRWMVAGKADPEMPKRMYIHPDSPATGEQWMAKPVAFHKLKLTNNISDKHGFTILNSMHKYQPRFHIVRANDILKLPYSTFRTYVFPETDFIAVTAYQNDKITQLKIDNNPFAKGFRDTGNGRREKRKQLTLPSLRLYEEHCKPERDGAESDASSCDPPPAREPPTSPGAAPSPLRLHRARAEEKSCAADSDPEPERLSEERAGAPLGRSPAPDSASPTRLTEPERARERRSPERGKEPAESGGDGPFGLRSLEKERAEARRKDEGRKEAAEGKEQGLAPLVVQTDSASPLGAGHLPGLAFSSHLHGQQFFGPLGAGQPLFLHPGQFTMGPGAFSAMGMGHLLASVAGGGNGGGGGPGTAAGLDAGGLGPAASAASTAAPFPFHLSQHMLASQGIPMPTFGGLFPYPYTYMAAAAAAASALPATSAAAAAAAAAGSLSRSPFLGSARPRLRFSPYQIPVTIPPSTSLLTTGLASEGSKAAGGNSREPSPLPELALRKVGAPSRGALSPSGSAKEAANELQSIQRLVSGLESQRALSPGRESPK
Turning to B2, the binding result in assay [2], in assay [3], in assay [4], in assay [5] and in assay [6] was “binds” in each case.
